## Primary screen of a compound library

T. brucei: 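Whole-parasite assay of Trypanosoma brucei over 72 hours; the read-out is not stated. Concentration: 30 µM. Direction is inferred from retests: higher values go with stronger inhibition. Values scatter widely below zero; nearly all retest evidence comes from the higher of the two concentrations used. Of about 64,000 compounds tested this way, about 940 (1.5%) reached 50% or more in at least one test.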
Toxoplasma: 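Assay of Toxoplasma gondii numbers, read through their beta-galactosidase reporter with a colour substrate. Tested at 10 µM. Higher reads as fewer parasites (inferred from which compounds were picked for retests). Of about 67,000 compounds tested this way, about 260 (0.38%) reached 50% or more in at least one test.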

Values are the deposited “Percent Effect”, in %. How 0% and 100% were set is not recorded. Most values in the screen are low, and negative values occur. The compounds are a random part of those screened. A dash means the value is not listed here; it may have been measured.

compound: CCN(CC)CCn1cnc(-c2ccccc2)c1-c1cnc(C)s1
Toxoplasma: -18.13

compound: Cc1nc(C)c(C(=O)N2CCN(CCOc3ccccc3C)CC2)o1
T. brucei: -3.914
Toxoplasma: -5.177

compound: COc1c(C2CCCN2C(=O)c2sccc2C#N)c(C)nn1C (stereo unspecified)
T. brucei: -15.6
Toxoplasma: -5.193

compound: Cc1nn(C)c(N2CCOCC2)c1CNC1CCc2cc(F)ccc21.Cl (stereo unspecified)
T. brucei: 2.572
Toxoplasma: 12.9

compound: CCN1C(=O)C2(CCOCC2)c2cc(NC(=O)COC)ccc21
T. brucei: -32.08
Toxoplasma: 5.003

compound: Cc1nc(CN2CCCC(Cn3cc(CCO)nn3)C2)c[nH]1 (stereo unspecified)
T. brucei: 2.841
Toxoplasma: 2.077

compound: CC(OCC1CC1)C(=O)N1CCCN(Cc2nccn2C(C)C)CC1 (stereo unspecified)
T. brucei: -4.414
Toxoplasma: -21.08

compound: CC(C)S(=O)(=O)N1CCC(c2cc3n(n2)[C@@H](C(F)(F)F)C[C@@H](C)N3)C1 (stereo partly specified)
T. brucei: 17.23
Toxoplasma: -0.6101

compound: Cc1occc1C(=O)Nc1cccc(C(=O)OCC2CCCN2)c1.Cl (stereo unspecified)
T. brucei: -34.92
Toxoplasma: 11.53

compound: CC1CN(C)c2ccccc2CN1C(=O)CSc1ccncc1 (stereo unspecified)
T. brucei: -50.04
Toxoplasma: 2.518

compound: CC(=O)N(C)CC(=O)NC(C)c1ccc(OCCC(C)C)cc1 (stereo unspecified)
T. brucei: -21.56
Toxoplasma: -15.23

compound: CN(C(=O)c1ccc[nH]1)C1CC(=O)N(Cc2ccccc2)C1=O (stereo unspecified)
T. brucei: -12.2
Toxoplasma: 14.03

compound: Cc1cc(CN2CCCC(Cn3cncn3)C2)on1 (stereo unspecified)
Toxoplasma: 15.26

compound: O=C1NCCN(Cc2ccccc2)C1CC(=O)N1CCc2n[nH]cc2C1 (stereo unspecified)
T. brucei: -75.86
Toxoplasma: -5.201

compound: Cc1csc(CNC(=O)NC(C)c2ccc3c(c2)OCCO3)n1 (stereo unspecified)
T. brucei: -50.61
Toxoplasma: 8.401

compound: [H][C@]12CCC[C@@]1(COCC1CCOCC1)CN(C(=O)c1ncccn1)C2
Toxoplasma: 1.883

compound: O=c1[nH]c2nc(NCC3CCCO3)ncc2c(=O)n1-c1ccc(F)cc1 (stereo unspecified)
T. brucei: -27.6
Toxoplasma: -29.36

compound: CCOc1ccc(-c2cc(=O)n3c(n2)CCCCC3)cc1
T. brucei: -43.57

compound: O=C(c1cccnc1SC/C=C/c1ccccc1)N1CCOCC(O)C1 (stereo unspecified)
T. brucei: 2.414
Toxoplasma: 7.469

compound: Cn1nnc2c(sc3nc(N4CCOCC4)c4c(c32)CCC4)c1=O
T. brucei: -33.26
Toxoplasma: -2.082

compound: CCc1cc(N[C@H]2CC[C@@H](N)CC2)n2nc(C)c(C)c2n1
T. brucei: -27.44
Toxoplasma: 0.4577

compound: O=c1c(S(=O)(=O)N2CCCC2)cccn1Cc1ccccc1Cl
T. brucei: 1.233
Toxoplasma: 3.29

compound: Nc1ccnn1C1CCN(Cc2ccccc2)C1 (stereo unspecified)
T. brucei: 4.997
Toxoplasma: -2.01

compound: Cn1c(=O)[nH]c2cc(C(=O)OCC(F)F)ccc21
T. brucei: -11.05
Toxoplasma: -7.697

compound: CCc1ccsc1C(=O)N1CCS(=O)(=O)CC1
T. brucei: -8.296
Toxoplasma: -7.183

compound: O=C(NC1CC1)NC(c1cc(F)ccc1F)C1CC1 (stereo unspecified)
T. brucei: -60.22
Toxoplasma: -0.6483

compound: Cc1ccc(CN(C)C(=O)CN2CCCCC2Cn2cncn2)o1 (stereo unspecified)
T. brucei: -35.86
Toxoplasma: 6.574

compound: CN(C)C(=O)c1cccc(NC(=O)N2CCCC(C(F)(F)F)C2)c1 (stereo unspecified)
T. brucei: 8.31
Toxoplasma: 5.072

compound: CC(=O)N1CCC[C@H]1C(=O)NCCOc1cccc(Cl)c1
T. brucei: 13.78
Toxoplasma: 2.541

compound: COC(=O)c1cccc(OCCn2nc(-c3cccs3)oc2=O)c1
T. brucei: -17.64
Toxoplasma: 5.277

compound: CN1CCOC(CNCCCOc2ccc(C#N)cc2)C1 (stereo unspecified)
T. brucei: -12.71
Toxoplasma: -4.245

compound: Cc1cc(NC(=O)CSc2nc(=O)ccn2C(C)C)no1
T. brucei: -33.46
Toxoplasma: -13.96

compound: Cc1ccc(NS(=O)(=O)c2c[nH]c3ncccc23)nc1
T. brucei: -11.65
Toxoplasma: 4.37

compound: NC(=O)C1(CCCc2ccncc2)CCCN1 (stereo unspecified)
T. brucei: -7.322
Toxoplasma: -20.72

compound: CCNc1cc2c(nn1)CCN(C(=O)c1cc3cccc(C)c3o1)C2
T. brucei: 29.79
Toxoplasma: 0.03595

compound: COc1ccc2nnc(C(=O)NC3CCCC3)nc2c1
T. brucei: -20.7
Toxoplasma: 16.59

compound: [H][C@@]12C[C@@H](c3nnc(C4CC4)o3)O[C@]1([H])CN(CC1CCOCC1)C2
T. brucei: -4.449
Toxoplasma: 14.7

compound: CCn1nc(CC(C)C)cc1C(=O)NCCS(=O)(=O)N(C)C
T. brucei: -28.95
Toxoplasma: 1.331

compound: CN(Cc1nnn(CC2CC2)n1)C(=O)c1ccccc1
T. brucei: -15.48
Toxoplasma: 22.77

compound: O=C(O)C(F)(F)F.[H][C@]12CN(Cc3ccc(C)cc3)C[C@@]1([H])S(=O)(=O)CC[C@@H]2C(=O)N1CCCC1
T. brucei: -62.41
Toxoplasma: -3.977

compound: OC[C@@H](O)CN(CCC(F)(F)F)c1ncc(Br)cn1
T. brucei: -48.32
Toxoplasma: 3.361

compound: CCCNC(=O)C(C)NC(=O)Nc1ccccc1SC(F)F (stereo unspecified)
T. brucei: -82.83
Toxoplasma: 12.16

compound: OCCCN1CCCC1c1cccc(Br)c1 (stereo unspecified)
T. brucei: -57.62
Toxoplasma: 2.715

compound: CCNC(=O)[C@@H]1C[C@H](N)CN1Cc1ccc(-c2cc[nH]n2)o1
T. brucei: -17.36
Toxoplasma: 8.562

compound: CCN(CC)C(=O)c1nc2c(s1)CCN(Cc1cccc(OC)c1)CC2.O=C(O)C(F)(F)F
Toxoplasma: -4.506

compound: CN(C)CCO[C@H]1C[C@@H](O)C12CCN(c1ncccc1Cl)CC2
T. brucei: -2.608
Toxoplasma: 2.664

compound: CNc1cc(C(=O)NCCC2=CSC3=NCCCN23)ccn1
T. brucei: 4.45
Toxoplasma: -21.44

For reference, 4 entries once more:

compound,T. brucei,Toxoplasma
OC[C@@H](O)CN(CCC(F)(F)F)c1ncc(Br)cn1,-48.32,3.361
O=C(c1cccnc1SC/C=C/c1ccccc1)N1CCOCC(O)C1 (stereo unspecified),2.414,7.469
[H][C@]12CCC[C@@]1(COCC1CCOCC1)CN(C(=O)c1ncccn1)C2,-,1.883
O=C(NC1CC1)NC(c1cc(F)ccc1F)C1CC1 (stereo unspecified),-60.22,-0.6483

Data taken from ChEMBL document CHEMBL3988442, “University of Dundee, Small-Polar-MMV Screening Library” (2021).